Earlier results as cited in patent publication US20050090520A1 (priority 2003, published 2005).
At least one compound was matched to its structure with a doubt left.

How the values were obtained:
allograft rejection = conditions: reviewed in Brinkmann et al, 2001; cited from earlier work
autoimmune diabetes = conditions: Yang et al. 2003; cited from earlier work
relapsing-remitting EAE = conditions: Webb et al. 2004; cited from earlier work
EAE = conditions: orally 1 mg/kg/day; Fujino et al. 2003; cited from earlier work

CCCCCCCCc1ccc(CCC(N)(CO)CO)cc1 [FTY720, 2-amino-2-[2-(4-octylphenyl)ethyl]-1,3-propanediol]
Allograft rejection (allograft rejection): efficiently prevent allograft rejection
Autoimmune diabetes (autoimmune diabetes): prevented autoimmune diabetes
Infiltration of mononuclear cells into the islets (autoimmune diabetes): sharply diminished
Numbers of circulating lymphocytes (autoimmune diabetes): significantly reduced
Clinical status of the animals (relapsing-remitting EAE): rapid and sustained improvement of the clinical status
EAE development (EAE): almost complete suppression of EAE-development
Leukocyte infiltration into the CNS (EAE): dramatic reduction of leukocyte infiltration into the CNS
